Measurements published in US10064928B2, “Peptides and combination of peptides for use in immunotherapy against CLL and other cancers” (IMMATICS BIOTECHNOLOGIES GMBH, priority 2015, dated 2018).

What was measured:
[1] = system: other tumor types (e.g. non-Hodgkin lymphoma, lung cancer); assay: Presentation of the peptides on additional tumor types (LC-MS, Tables 4A/4B, FIG. 1); parameters: species or system human; conditions: for Other relevant organs/diseases: Table 4A: additional tumor types where the peptide was over-presented on more than 5% of the measured tumor samples, or presented on more than 5% with ratio of geometric means tumor vs normal tissues larger than 3; for Additional Entities: Table 4B: additional tumour types with over-presentation (including specific presentation) on more than 5% of the measured tumour samples, or presentation on more than 5% with ratio of geometric means tumour vs normal tissues larger than 3, extended normal tissue panel
[2] = system: CLL samples compared to a panel of normal tissues; assay: Identification and label-free relative LC-MS quantitation of HLA-presented peptides (presentation profiles and scores); parameters: species or system human; key: very highly over-presented on tumors compared to a panel of normal tissues (+++); highly over-presented on tumors compared to a panel of normal tissues (++); over-presented on tumors compared to a panel of normal tissues (+); conditions: presentation score; over-presentation on tumors (CLL samples) compared to a panel of normal tissues

## 351 (ALSEKLARL; listed as Homo sapiens) [compound 351]
[1]
  Other relevant organs/diseases: HCC, NHL, AML, Urinary bladder cancer
  Additional Entities: CRC, HNSCC, Melanoma, NSCLC, OC, PC, Brain Cancer, RCC, Uterine Cancer
[2]
  Peptide Presentation: +

## 142 (QLDEPAPQV; listed as Homo sapiens) [compound 142]
[2]
  Peptide Presentation: +++

## 168 (YLLDQSFVM; listed as Homo sapiens) [compound 168]
[1]
  Other relevant organs/diseases: NHL
[2]
  Peptide Presentation: +++

## 73 (GLLEVISALQL; listed as Homo sapiens) [compound 73]
[2]
  Peptide Presentation: +++

## 314 (LMKDCEAEV; listed as Homo sapiens) [compound 314]
[1]
  Other relevant organs/diseases: NHL
[2]
  Peptide Presentation: ++

## 58 (YIQQGIFSV; listed as Homo sapiens) [compound 58]
[1]
  Additional Entities: NHL, NSCLC
[2]
  Peptide Presentation: ++

## 268 (TLLQVFHLL; listed as Homo sapiens) [compound 268]
[1]
  Other relevant organs/diseases: NHL
  Additional Entities: Uterine Cancer
[2]
  Peptide Presentation: ++

## 210 (KLLVQDFFL; listed as Homo sapiens) [compound 210]
[1]
  Other relevant organs/diseases: HCC, NHL
[2]
  Peptide Presentation: +++

## 189 (VMLEMTPEL; listed as Homo sapiens) [compound 189]
[1]
  Other relevant organs/diseases: SCLC, PC, NHL, BRCA, Melanoma, Gallbladder Cancer, Bile Duct Cancer
  Additional Entities: HNSCC
[2]
  Peptide Presentation: +++

## 283 (ILQPMDIHV; listed as Homo sapiens) [compound 283]
[1]
  Other relevant organs/diseases: NHL
[2]
  Peptide Presentation: +++

## 4 (VIAELPPKVSV; listed as Homo sapiens) [compound 4]
[2]
  Peptide Presentation: +++

## 29 (AVLQAVTAV; listed as Homo sapiens) [compound 29]
[1]
  Other relevant organs/diseases: SCLC, NHL, AML, Melanoma, OC, Gallbladder Cancer, Bile Duct Cancer
  Additional Entities: Uterine Cancer
[2]
  Peptide Presentation: +++

## 379 (YLAELVTPIL; listed as Homo sapiens) [compound 379]
[1]
  Other relevant organs/diseases: NSCLC, SCLC, NHL, Melanoma
  Additional Entities: HCC, BRCA, Uterine Cancer, AML, HNSCC
[2]
  Peptide Presentation: +

## 275 (VLLFIEHSV; listed as Homo sapiens) [compound 275]
[1]
  Other relevant organs/diseases: NHL
  Additional Entities: Melanoma
[2]
  Peptide Presentation: +

## 311 (LLVDVEPKV; listed as Homo sapiens) [compound 311]
[1]
  Other relevant organs/diseases: NSCLC, SCLC, RCC, HCC, PC, NHL, AML, Melanoma
  Additional Entities: Uterine Cancer, HNSCC
[2]
  Peptide Presentation: +

## 61 (FVYFIVREV; listed as Homo sapiens) [compound 61]
[2]
  Peptide Presentation: +++

## 60 (FVLDHEDGLNL; listed as Homo sapiens) [compound 60]
[1]
  Other relevant organs/diseases: Melanoma, Esophageal Cancer
[2]
  Peptide Presentation: ++

## 205 (GLSQANFTL; listed as Homo sapiens) [compound 205]
[1]
  Other relevant organs/diseases: NHL
[2]
  Peptide Presentation: +

## 271 (VIRNIVEAA; listed as Homo sapiens) [compound 271]
[1]
  Other relevant organs/diseases: GC, CRC, PC, AML, Esophageal Cancer
[2]
  Peptide Presentation: ++

## 83 (GQGEVLVYV; listed as Homo sapiens) [compound 83]
[1]
  Other relevant organs/diseases: SCLC, GC, Esophageal Cancer
  Additional Entities: NHL
[2]
  Peptide Presentation: +

## 90 (VIADLGLIRV; listed as Homo sapiens) [compound 90]
[1]
  Additional Entities: Melanoma
[2]
  Peptide Presentation: +++

## 218 (ALGEEWKGYVV; listed as Homo sapiens) [compound 218]
[1]
  Other relevant organs/diseases: Esophageal Cancer
  Additional Entities: AML
[2]
  Peptide Presentation: +

## 167 (TLDTSKLYV; listed as Homo sapiens) [compound 167]
[1]
  Other relevant organs/diseases: NHL
[2]
  Peptide Presentation: +++

## 292 (AAALIIHHV; listed as Homo sapiens) [compound 292]
[1]
  Other relevant organs/diseases: Urinary bladder cancer
[2]
  Peptide Presentation: +

## 124 (LLLEETEKQAV; listed as Homo sapiens) [compound 124]
[1]
  Other relevant organs/diseases: RCC, HCC
  Additional Entities: HNSCC
[2]
  Peptide Presentation: ++

## 316 (MLLEHGITL; listed as Homo sapiens) [compound 316]
[1]
  Other relevant organs/diseases: NHL
[2]
  Peptide Presentation: +++

## 128 (LLSEEEYHL; listed as Homo sapiens) [compound 128]
[1]
  Additional Entities: Urinary Bladder Cancer, NHL, HNSCC
[2]
  Peptide Presentation: +++

## 322 (SLASIHVPL; listed as Homo sapiens) [compound 322]
[1]
  Other relevant organs/diseases: NHL
[2]
  Peptide Presentation: +++

## 59 (FVFGDENGTVSL; listed as Homo sapiens) [compound 59]
[1]
  Other relevant organs/diseases: NHL, Esophageal Cancer, Urinary bladder cancer, Uterine Cancer
  Additional Entities: SCLC, HNSCC
[2]
  Peptide Presentation: +++

## 115 (LLFDKLYLL; listed as Homo sapiens) [compound 115]
[1]
  Additional Entities: Uterine Cancer
[2]
  Peptide Presentation: +++

## 39 (FLDALLTDV; listed as Homo sapiens) [compound 39]
[1]
  Other relevant organs/diseases: SCLC, NHL, AML, Melanoma
[2]
  Peptide Presentation: +++

## 17 (ALTKTNLQL; listed as Homo sapiens) [compound 17]
[2]
  Peptide Presentation: +++

## 331 (VLWELAHLPTL; listed as Homo sapiens) [compound 331]
[2]
  Peptide Presentation: +++

## 270 (TVLPVPPLSV; listed as Homo sapiens) [compound 270]
[2]
  Peptide Presentation: +++

## 47 (FLSDQPEPYL; listed as Homo sapiens) [compound 47]
[2]
  Peptide Presentation: ++

## 132 (LVYEAIIMV; listed as Homo sapiens) [compound 132]
[2]
  Peptide Presentation: +++

## 140 (QIAELPATSV; listed as Homo sapiens) [compound 140]
[2]
  Peptide Presentation: +++

## 65 (GLDDMKANL; listed as Homo sapiens) [compound 65]
[2]
  Peptide Presentation: +++

## 171 (TLVPPAALISI; listed as Homo sapiens) [compound 171]
[2]
  Peptide Presentation: +++

## 277 (VMILKLPFL; listed as Homo sapiens) [compound 277]
[2]
  Peptide Presentation: +

## 77 (GLLRLTWFL; listed as Homo sapiens) [compound 77]
[2]
  Peptide Presentation: ++

## 50 (FLFEPVVKAFL; listed as Homo sapiens) [compound 50]
[2]
  Peptide Presentation: +++

## 36 (FILTHVDQL; listed as Homo sapiens) [compound 36]
[2]
  Peptide Presentation: +++

## 345 (YLIEPDVELQRI; listed as Homo sapiens) [compound 345]
[2]
  Peptide Presentation: +

## 372 (SLFGPLPGPGPALV; listed as Homo sapiens) [compound 372]
[2]
  Peptide Presentation: +

## 18 (LLGEFSIKM; listed as Homo sapiens) [compound 18]
[2]
  Peptide Presentation: +++

## 134 (MLLEHGITLV; listed as Homo sapiens) [compound 134]
[2]
  Peptide Presentation: +++

## 23 (ALYLTEVFL; listed as Homo sapiens) [compound 23]
[2]
  Peptide Presentation: +++

## 104 (KLILLDTPLFL; listed as Homo sapiens) [compound 104]
[2]
  Peptide Presentation: +++

## 123 (LLLAEAELLTL; listed as Homo sapiens) [compound 123]
[2]
  Peptide Presentation: +++

## 54 (FLYPFPLALF; listed as Homo sapiens) [compound 54]
[2]
  Peptide Presentation: +++

## 131 (LQALEVLKI; listed as Homo sapiens) [compound 131]
[2]
  Peptide Presentation: +++

## 144 (QLPPFPREL; listed as Homo sapiens) [compound 144]
[2]
  Peptide Presentation: +++

## 129 (LLVGTLDVV; listed as Homo sapiens) [compound 129]
[2]
  Peptide Presentation: +

## 53 (FLWQHVELVL; listed as Homo sapiens) [compound 53]
[2]
  Peptide Presentation: +++

## 302 (ILQDLTFVHL; listed as Homo sapiens) [compound 302]
[2]
  Peptide Presentation: +

## 95 (ILGYMAHEHKV; listed as Homo sapiens) [compound 95]
[2]
  Peptide Presentation: +++

## 16 (ALPGGAAVAAV; listed as Homo sapiens) [compound 16]
[2]
  Peptide Presentation: ++

## 259 (RLLDEQFAVL; listed as Homo sapiens) [compound 259]
[2]
  Peptide Presentation: +

## 135 (MTAGFSTIAGSV; listed as Homo sapiens) [compound 135]
[2]
  Peptide Presentation: +++

## 182 (VLLSVPGPPV; listed as Homo sapiens) [compound 182]
[2]
  Peptide Presentation: +++

## 356 (FLHDHQAEL; listed as Homo sapiens) [compound 356]
[2]
  Peptide Presentation: +

## 287 (FLWEEKFNSL; listed as Homo sapiens) [compound 287]
[2]
  Peptide Presentation: +++

## 318 (NLQVTQPTV; listed as Homo sapiens) [compound 318]
[2]
  Peptide Presentation: +++

## 206 (HMQDVRVLL; listed as Homo sapiens) [compound 206]
[2]
  Peptide Presentation: +++

## 6 (ALDTLEDDMTI; listed as Homo sapiens) [compound 6]
[2]
  Peptide Presentation: +++

## 173 (TVIENIHTI; listed as Homo sapiens) [compound 173]
[1]
  Additional Entities: CRC, HCC, Melanoma, NHL, NSCLC, OC, Esophageal Cancer, GC, RCC
